# These are yes or no findings as the source states them, for the method shown.
# The chains behind the UniProt entries cited, without tags or fusion partners. Residues count along the entry.
# UniProt P00772, residues 27-266: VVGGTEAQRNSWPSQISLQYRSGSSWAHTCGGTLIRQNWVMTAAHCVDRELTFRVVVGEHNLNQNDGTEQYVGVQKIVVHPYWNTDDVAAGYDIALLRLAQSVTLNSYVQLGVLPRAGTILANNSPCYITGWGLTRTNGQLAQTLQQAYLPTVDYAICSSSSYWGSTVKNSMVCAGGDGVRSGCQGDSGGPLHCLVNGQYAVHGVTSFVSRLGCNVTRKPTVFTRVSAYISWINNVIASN
# Molecular target: porcine pancreatic elastase (porcine) (UniProt P00772)
# Assay: enzyme inhibition assay (chromogenic substrate), inhibition against inhibitor concentration; chymotrypsin or elastase 100 nM incubated with 0 to 40000 nM rSdPI for 30 min; as for trypsin, with the relevant chromogenic substrates; both purified
binder,measurement,value
"recombinant SdPI peptide (scorpion-derived protease inhibitor), wild type (peptide, UniProt P0DJ45 22-80) KNKCQLPSDVGKGKASFTRYYYNEEGGKCETFIYGGVGGNSNNFLTKEDCCRECAQGSC",binding,no binding (tested: 40000 nM)

# From article PMC3210814
